From PMC3661451
Results are given in words; binding and its absence hold for the method and conditions named. For some of these results: Binding can be weak; no strength is given. Where a sequence is shown, tags or fusion partners need not be part of it.

Columns and labels:
[1] = target: ComD (AD-comD fusion, pACT2-comD) (Streptococcus pneumoniae); assay: two-hybrid; yeast two-hybrid, GAL1-HIS3 reporter; BD-dprA (pGBDUC2) with AD fusions (pACT2) in diploids; growth on SD-Ura-Leu-His without 3AT, 26°C, up to 7 days
[2] = target: ComX (AD-comX fusion, pACT2-comX) (Streptococcus pneumoniae); assay: as above
[3] = target: RecA (AD-recA fusion, pACT2-recA) (Streptococcus pneumoniae); assay: as above
[4] = target: RecA (AD-recA fusion, pACT2-recA) (Streptococcus pneumoniae); assay: two-hybrid; yeast two-hybrid, GAL1-HIS3 reporter; same diploids; growth on SD-Ura-Leu-His + 1 mM 3AT and + 3 mM 3AT, 26°C, a week

B1: DprA (BD-dprA fusion, pGBDUC2-dprA) (protein, UniProt Q8DPI7 1-282)
chain: MKITNYEIYKLKKSGLTNQQILKVLEYGENVDQELLLGDIADISGCRNPAVFMERYFQIDDAHLSKEFQKFPSFSILDDCYPWDLSEIYDAPVLLFYKGNLDLLKFPKVAVVGSRACSKQGAKSVEKVIQGLENELVIVSGLAKGIDTAAHMAALQNGGKTIAVIGTGLDVFYPKANKRLQDYIGNDHLVLSEYGPGEQPLKFHFPARNRIIAGLCRGVIVAEAKMRSGSLITCERAMEEGRDVFAIPGSILDGLSDGCHHLIQEGAKLVTSGQDVLAEFEF
B1 was tested, and the binding [1] was “no binding”, the binding [2] was “no binding” and the binding [3] was “binds”. The binding [4] was “no binding (only with 1 mM or 3 mM 3AT)”.
